In article PMC10313721:
No constants are given. Whether binding was seen depends on the method and setting. For some of these results: Binding seen in cells or lysates may run through a third protein. Some results given as binding are weak or reduced against the parent protein; the word gives no strength. For some of these results: Sequences can lack the tags named with a protein. Blank lines part the entries; values can stand above or below the substance they belong to.

By UniProt entry, the sequences of proteins in these tests, tags left out. Residues count along the entry.
UniProt P17931: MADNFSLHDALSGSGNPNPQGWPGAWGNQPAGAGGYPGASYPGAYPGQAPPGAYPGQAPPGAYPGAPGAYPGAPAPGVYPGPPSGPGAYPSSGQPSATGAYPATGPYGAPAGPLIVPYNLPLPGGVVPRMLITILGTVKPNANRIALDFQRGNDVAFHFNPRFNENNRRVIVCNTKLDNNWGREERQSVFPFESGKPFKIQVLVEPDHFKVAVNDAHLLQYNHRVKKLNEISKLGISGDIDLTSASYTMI
UniProt P01579, residues 24-161: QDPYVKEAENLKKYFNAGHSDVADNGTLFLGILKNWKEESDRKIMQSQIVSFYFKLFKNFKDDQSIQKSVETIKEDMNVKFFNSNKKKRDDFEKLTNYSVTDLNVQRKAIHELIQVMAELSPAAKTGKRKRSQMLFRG

Assays:
[1] = molecular target: T1, Flag-RNF8 (human) (UniProt O76064); assay: co-IP; Flag-RNF8 and HA-gal-3 over-expressed in 293 T and A375 cells; lysates in IP binding buffer, protein A/G magnetic beads and antibody, 4 h at 4 °C, western blot
T1 sequence: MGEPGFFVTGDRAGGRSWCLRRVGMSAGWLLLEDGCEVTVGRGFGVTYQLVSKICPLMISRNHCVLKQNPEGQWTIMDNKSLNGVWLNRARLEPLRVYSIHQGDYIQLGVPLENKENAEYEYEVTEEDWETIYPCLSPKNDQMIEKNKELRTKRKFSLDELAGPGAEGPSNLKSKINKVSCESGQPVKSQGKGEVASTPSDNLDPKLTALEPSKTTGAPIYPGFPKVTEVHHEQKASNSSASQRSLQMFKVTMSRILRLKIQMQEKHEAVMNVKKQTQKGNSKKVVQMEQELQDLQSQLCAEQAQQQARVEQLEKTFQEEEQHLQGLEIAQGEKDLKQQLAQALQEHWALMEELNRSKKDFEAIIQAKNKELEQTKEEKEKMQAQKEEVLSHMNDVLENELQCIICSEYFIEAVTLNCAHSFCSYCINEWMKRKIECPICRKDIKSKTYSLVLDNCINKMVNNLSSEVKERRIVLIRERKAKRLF

[2] = molecular target: recombinant human gal-3 (human) (UniProt P17931); assay: pull-down; Dynabeads M-280 Streptavidin coated with saturating amounts of gal-3; different amounts of beads incubated with the cytokine in PBS for 1 h at room temperature; after magnetic sorting the cytokine left in the supernatant measured by ELISA; both purified
[3] = molecular target: recombinant human gal-3 (human) (UniProt P17931); assay: pull-down; as a1, but gal-3-coated beads and cytokine incubated in the presence of 100 mM lactose or 50 mM LacNAc (LAC); cytokine in the supernatant measured by ELISA; both purified
[4] = molecular target: T2, endogenous RNF8 (human (endogenous in 293 T and A375)) (UniProt O76064); assay: co-IP; endogenous proteins; 293 T and A375 lysates in IP binding buffer, protein A/G magnetic beads and antibody, 4 h at 4 °C, western blot
T2 sequence: T1 sequence

binding [1]: binds
Substance: HA-gal-3 (from UniProt P17931 1-250)

binding [2]: binds
Substance: IFN-γ (from UniProt P01579 24-161)
binding [3]: no binding (condition: with 100 mM lactose or 50 mM LAC)

binding [4]: binds
Substance: endogenous gal-3 (from UniProt P17931 1-250)
